In all, about 33,000 sequences were measured (“E-score (-0.5 to 0.5)”: median about -0.016, highest 2% from about 0.3 on). This is one part of the list.
The sequences below were run against T1, Yer184c (UniProt P39961) (assay: PBM E-score (8-mer binding enrichment) (E-score (-0.5 to 0.5)); higher = stronger / more preferred TF binding). Conditions: protein concentration: 100 nM; construct: GST-full length.
T1 sequence: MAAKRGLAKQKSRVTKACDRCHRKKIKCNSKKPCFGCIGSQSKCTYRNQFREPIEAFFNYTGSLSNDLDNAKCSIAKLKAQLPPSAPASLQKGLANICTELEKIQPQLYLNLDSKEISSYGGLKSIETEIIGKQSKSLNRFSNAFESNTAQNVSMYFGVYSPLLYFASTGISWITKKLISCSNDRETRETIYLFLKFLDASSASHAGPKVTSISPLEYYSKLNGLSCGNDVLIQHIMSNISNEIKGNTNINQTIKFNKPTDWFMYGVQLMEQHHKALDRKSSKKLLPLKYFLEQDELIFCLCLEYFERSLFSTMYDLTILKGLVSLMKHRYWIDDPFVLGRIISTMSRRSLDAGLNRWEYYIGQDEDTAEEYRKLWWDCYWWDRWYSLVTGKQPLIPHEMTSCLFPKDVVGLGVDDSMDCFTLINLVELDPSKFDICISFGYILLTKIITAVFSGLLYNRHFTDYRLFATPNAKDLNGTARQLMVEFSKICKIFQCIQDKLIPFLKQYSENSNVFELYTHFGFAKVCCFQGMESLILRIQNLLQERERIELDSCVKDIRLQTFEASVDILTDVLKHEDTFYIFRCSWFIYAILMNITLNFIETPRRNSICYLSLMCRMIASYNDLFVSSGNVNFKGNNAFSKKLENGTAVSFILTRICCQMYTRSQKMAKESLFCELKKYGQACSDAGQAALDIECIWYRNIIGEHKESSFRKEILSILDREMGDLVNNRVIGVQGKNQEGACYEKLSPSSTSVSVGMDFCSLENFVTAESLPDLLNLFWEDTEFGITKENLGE
In short: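 Yeast transcription factors, full-length or as DNA-binding domains, were expressed with a GST tag using PURExpress in vitro transcription/translation. At about 100-200 nM they were applied to universal all-10-mer Agilent arrays, double-stranded by primer extension on fresh or once-stripped slides. Fluorescent anti-GST detected bound protein, and masliner normalised the scans. E-scores for ungapped eight-base words, pooled with reverse complements, came from the Universal PBM Analysis Suite.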

| Sequence | PBM E-score |
| --- | --- |
| GAAGAAAA | 0.24 |
| CTTTATTC | 0.0145 |
| CCCTGGCC | -0.262 |
| CGAGTCTC | -0.227 |
| CGACCTAA | 0.265 |
| GTTTATAA | 0.251 |
| ACCCGTGC | -0.123 |
| CATAGTCA | -0.147 |
| CCTGCAGG | -0.14 |
| CAAGATTG | -0.081 |
| AGAAGAGG | -0.184 |
| ATAACTAC | 0.0239 |
| CACCCCTC | -0.221 |
| CCCATACA | -0.258 |
| ACCTAAAC | 0.0973 |
| ATGCCTGG | -0.17 |
| GCTACGTA | -0.0292 |
| ACTTGCAT | -0.0256 |
| ATTGCAGC | -0.14 |
| ACAGCGGG | -0.113 |
| CAGAACGA | -9e-05 |
| CATAGGAC | -0.224 |
| AGATCGCC | -0.0516 |
| AGAAACCA | 0.00764 |
| GGGGAAAA | -0.0216 |

Taken from the results shown for reference:

| Sequence | PBM E-score |
| --- | --- |
| ACCTAAAC | 0.0973 |
| ATGCCTGG | -0.17 |
| GCTACGTA | -0.0292 |
| ACTTGCAT | -0.0256 |
| ATTGCAGC | -0.14 |
| ACAGCGGG | -0.113 |
| CAGAACGA | -9e-05 |

More results

| Sequence | PBM E-score |
| --- | --- |
| ATCCTAGC | -0.175 |
| GTTCTACA | -0.14 |
| CGGCTGCA | 0.278 |
| AAGTAAAC | 0.0444 |
| GTCGCCAC | -0.284 |
| ATGGATAC | 0.0807 |
| AAACAAAG | 0.0857 |
| TCTGGTAA | 0.0307 |
| CGTGGCAA | -0.0803 |
| TCATTTAA | 0.0211 |
| CGATAGTC | 0.0184 |
| AGAACTCT | -0.177 |
| GTACCGAC | 0.0552 |
| GAGAGGCA | -0.0809 |
| AGGCACCG | -0.122 |
| CCACACCA | -0.0912 |
| ATACCGGC | 0.263 |
| CTGTTTAA | 0.0786 |
| AATCGCAA | 0.124 |
| CTTTCGGC | 0.201 |
| CCTTCGTA | -0.0851 |
| CACATCTG | -0.209 |
| AGTACGGG | -0.172 |
| TAAGCTAA | 0.138 |
| AAGGGCAG | -0.223 |

| Sequence | PBM E-score |
| --- | --- |
| ACAGTAAA | 0.101 |
| GGATTGGA | -0.0491 |
| CGACTTAC | 0.0007 |
| GAGTGACC | -0.127 |
| GGCAATTA | 0.061 |
| CCCACCTA | -0.241 |
| TATAACGA | 0.0709 |
| ATCGGCTA | 0.265 |
| ACGAGTGC | -0.105 |
| ACTAAACC | 0.136 |
| CAGAATCC | 0.0788 |
| CCGTTGAA | 0.106 |
| GCGTAACC | -0.237 |
| ATGGTTAC | 0.0408 |
| CGCCACCA | -0.27 |
| CATATAGC | -0.00379 |
| GGGTGGCA | -0.2 |
| GGTCCCAC | -0.209 |
| AGACGCGC | -0.123 |
| CGACCCGA | 0.0439 |
| AAGAATGT | 0.09 |
| CCAGGCGG | 0.106 |
| AGGTCGAA | -0.0466 |
| CATACACG | 0.0872 |
| CTGCAGGA | 0.128 |

| Sequence | PBM E-score |
| --- | --- |
| CGAGCTCA | 0.144 |
| CAGGTAAG | -0.147 |
| AGGCGGTA | -0.135 |
| CCATAAAC | -0.15 |
| GTAAGCGA | 0.00236 |
| GAATGACA | 0.0817 |
| TCCGAGAA | 0.324 |
| AATAGCGT | 0.0642 |
| GCTAATAC | 0.0878 |
| CTCTTCCA | 0.12 |
| ACATTATA | 0.105 |
| ATTACAAG | 0.0635 |
| CACGGGGA | -0.0205 |
| ATAACGGG | -0.0327 |
| TTGATAAA | 0.329 |
| ATGAATCA | 0.111 |
| GACAAGTC | -0.131 |
| CCGTATCA | 0.228 |
| ATTAAGGC | 0.0774 |
| CACTTTAC | -0.0215 |
| AGGACGCC | -0.0847 |
| CTAATCAA | 0.134 |
| CGTCTAAC | 0.0407 |
| CAGCGAAA | 0.0997 |
| GGTTACGA | -0.00282 |

| Sequence | PBM E-score |
| --- | --- |
| ATGGGGTG | -0.23 |
| GTGGCCTA | -0.208 |
| CCCTTTCA | -0.192 |
| ATATAGCA | -0.12 |
| ACACGCGG | 0.131 |
| GCTACACC | -0.143 |
| CAAACCAA | 0.0827 |
| ACATGTAG | -0.00247 |
| GCCTGGAA | -0.17 |
| GATCGGAC | 0.322 |
| ATATGCAC | -0.107 |
| AGGTGGTC | -0.259 |
| GTTACCCA | -0.139 |
| AAGTATCA | 0.0809 |
| ATCGTTGG | 0.0597 |
| AAGATTAC | -0.0157 |
| ACCTGAGG | -0.215 |
| GCGATAGA | -0.092 |
| ATTGCATA | 0.0949 |
| ATGATGCA | 0.142 |
| AACACGAG | 0.0172 |
| CCGCAGAG | -0.245 |
| ACTGATAT | 0.0537 |
| AGCTAACC | -0.0846 |
| ACACAAAT | 0.2 |

| Sequence | PBM E-score |
| --- | --- |
| AAGCATGG | -0.21 |
| CAACACTG | -0.0678 |
| CGCTACCC | -0.137 |
| AAACTGCC | 0.0723 |
| CGTTCAGA | -0.0522 |
| CGGCGATA | 0.36 |
| AGTACAAA | -0.0454 |
| CGATAACA | 0.145 |
| GACGATAA | 0.043 |
| AAATTTAT | 0.286 |
| CCGACTAG | -0.036 |
| CTTAATGA | -0.0707 |
| AGCGGCAT | 0.194 |
| GTCCAGGA | -0.119 |
| GCATTTCC | 0.0434 |
| TTCACCAA | 0.0242 |
| AGTATCAC | -0.0275 |
| AATCACGG | 0.189 |
| GATCTTCC | 0.152 |
| AGAAGCCA | -0.0195 |
| ATGAGGAG | -0.161 |
| CCCGTCAC | -0.172 |
| ATCGATGC | -0.0236 |
| CCGCGAAA | 0.178 |
| AGCCGTGC | 0.0424 |

| Sequence | PBM E-score |
| --- | --- |
| ACTTAATA | 0.182 |
| CAAAGCTA | 0.112 |
| ACGCCAAA | -0.133 |
| GGATTGAC | -0.0184 |
| GTCGTACA | -0.151 |
| ATGCGGAA | 0.271 |
| CCACACGG | -0.0813 |
| AACACTAC | 0.0594 |
| GAGATTTA | -0.0184 |
| CGGCACAG | 0.298 |
| AGAATCGC | 0.105 |
| CACTATGC | -0.00061 |
| GGTGTAGA | -0.226 |
| AGCACCGG | 0.165 |
| AATAAAAT | 0.245 |
| ATCTCCAC | -0.186 |
| GCCTGGCA | -0.184 |
| GATTCCCA | -0.0287 |
| AAGCGTTC | -0.0864 |
| AGCATCCT | -0.133 |
| AGACATCT | -0.106 |
| AAAGCTTA | 0.122 |
